# Assay results as given in PubChem BioAssay AID1347426 (Functional Genomics Laboratory (NCATS/FGL), 2020).
# Among all 31,000 sequences or so, about 1,400 (4.5%) were called active.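 The calls were made as follows: active = median seed-adjusted z-score above 1 or below -1; inactive = the rest.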 The list shows a part of the results.
# Assay: Novel Modifiers of Survival Motor Neuron (SMN) Protein: Gene Identification via Genome-wide siRNA Screen;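 also: luminescence tracks full-length SMN protein made from the SMN2 reporter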
# Settings: HEK293T SMN2-luciferase reporter, siRNA knockdown, 72 h; actives lie on both sides
# Summary of the method: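 Luciferase signal, proportional to full-length SMN made from an SMN2 cDNA reporter in stable HEK293T cells, was read 72 h after siRNA reverse transfection. Values were expressed as MAD scores after non-targeting-control normalization and log10 conversion; seed analysis flagged off-targets.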
row,Sequence,median seed-adjusted z-score
1,ACUUCAUGAUGGAUAUCCATT against KCNN4,inactive: 0.00864
2,CGGUCCAUCUGAUCCAUGATT against GANAB,inactive: 0.269
3,CAUCAAGAAUUGCGAAUUATT against TRIP4,inactive: -0.0385
4,CUGUUCCAAUUAAAGAUAATT against ATRIP,inactive: 0.353
5,UCUCCUUCCUUUUAACGGATT against CACNG5,inactive: -0.41
6,UGGUCUAUCGGGAUCAGAATT against KLC2,inactive: 0.0706
7,GCAUGUAGGUCACCUCAUUTT against WARS,inactive: -0.724
8,GGACAGACAAGGAACCCAUTT against CASP10,inactive: -0.0372
9,GGAAGGCAAGUACAGCGUATT against PCDH21,inactive: -0.528
10,CCUCAACUGCAUACGGAAATT against GRID1,inactive: 0.66
11,CCAGAUGCCUGGUGAAACATT against RAB38,inactive: -0.165
12,CAUCCACAUUGCACAUAAATT against TYK2,inactive: -0.549
13,GCAUGACCUCUGUAAGGGATT against ANK1,inactive: -0.282
14,CAACAAAACUCCACUCGAATT against OPRM1,inactive: -0.00476
15,UGACAUCAAGAGCUACUUUTT against FEN1,inactive: -0.316
16,GGAGAGCUGUGAAAAGUCATT against CCR8,inactive: -0.206
17,GCAUCCAGAUUCCGAACAATT against ZACN,inactive: 0.065
18,CUUCUUCGAUGAUUCCUAUTT against UBE2O,inactive: 0.125
19,CGAUUUCGGCAACAAUUUATT against CAPNS2,inactive: 0.529
20,GGGCUACAAACUGAACAAATT against LOC81691,inactive: -0.285
21,CCUACGUUUUUAUUAUCUUTT against SLC2A14,active: -1.09
22,CCACAGAGAUUAACUUCAATT against CRABP2,inactive: 0.0092
23,GAGUUCAACUUAGAGACGATT against TIE1,inactive: 0.0629

row,Sequence,median seed-adjusted z-score
1,AGAGGGUGUUCUCUAUGUATT against SNCA,inactive: 0.36
2,GUACAUAACAUCAAUUUCATT against ZBTB24,inactive: -0.156
3,GGAACAUAGAGAUUUUAUATT against BHLHB3,inactive: -0.00972
4,GGACGAUUACAUCUUCUUUTT against SORCS2,inactive: 0.648
5,CGAGUGCACUGCUGCCUAUTT against 5-Sep,inactive: -0.0749
6,CGCUGUAAAUAUACACUAUTT against ADRA2A,inactive: -0.65
7,CAUCCAUCCUGUUUCCACUTT against GAL3ST4,inactive: 0.248
8,AGAGGAGCAUACUACAUGATT against SPAG7,inactive: 0.263
9,CAGUUGACAGUGUGAUUAUTT against ACAA2,inactive: 0.435
10,GGUCAGCCCUUCUUUCACATT against ZNF192,inactive: 0
11,GCAUGUCUAUCCUACGUGATT against TUSC4,inactive: 0.312
12,GCUAUAAGGUGGAACGGCATT against POLR2A,active: -3.81
13,GCAAGUUCCAGGGCUACUATT against MGAT1,inactive: 0.138
14,GGCCCUUGUCUCUAAGGAUTT against SLC22A17,inactive: -0.149
15,ACAUCAUCACGUCGCAGAATT against CLDN3,inactive: -0.0833
16,GGAGGUGACCUUCCAGGAATT against RAB17,inactive: 0.473
17,GGCUAGUAGCUGAACUUCATT against DIMT1L,inactive: 0.0156
18,GCAAGUGGAGAACACUUUATT against NKX2-2,inactive: -0.0805
19,CACCUGAAUCUAUACGCUUTT against DGKK,inactive: 0
20,GCUCCACUCCGAACAAUCATT against EPO,inactive: 0.148
21,CCAACAAACAGUACGGGUATT against AVPR1A,inactive: 0
22,GCAGAUUACUGGUGACUAUTT against AMPD1,inactive: 0.378
23,CAGUCUACAGCUUCAACAATT against ZNF207,active: -3.1

row,Sequence,median seed-adjusted z-score
1,GAUCAGGCCUUAUUCGACATT against ZNF345,inactive: -0.275
2,GCCUGACCCGUGAGACAAATT against THY1,active: -1.1
3,GGAGGUGUAUUUCCGGUUUTT against APOBEC3D,inactive: -0.0215
4,GGAGUGUGAUCGACCCUCATT against KRTAP5-5,active: -1.07
5,GGAAGAAACCAUUACAAUATT against SNAPC3,active: -1.72
6,GGAUUAUCACCUGAACUAUTT against FMR1,inactive: 0.504
7,GAACCAACCUGUCAAGUGATT against SELL,inactive: 0.554
8,GACUGAUUGCUGAUAGAAATT against DOCK1,inactive: -0.235
9,GCAAUCUGCGUAGCAAAUATT against ANGEL2,inactive: -0.59
10,GGCUGUAAGUGGUCUCCGUTT against TYROBP,inactive: 0.249
11,CCUCCUCAGUCAUAGAGCATT against NR2F2,inactive: 0.129
12,GGAUUAGUCCAAAGAGUGATT against FZD6,inactive: 0.312
13,GGAGAGGUAGAGAUCCGAATT against LTK,inactive: -0.0881
14,CCUGAAUCGGAUUAAAGAATT against LCN9,inactive: -0.897
15,GGCUGGGACUCGAAAGAAATT against APOB48R,inactive: 0.386
16,CGUGGUCACAAUUCUGCUATT against GPRC5D,inactive: -0.038
17,GCAUCGUUGAGACUUCGGATT against ARL6IP5,inactive: -0.202
18,GGUUGAAGAUGGUACUCCUTT against ADAMTS20,active: 1.44
19,GAUGGAUCUUUACAGUUGATT against METTL4,inactive: 0.244
20,CCAUGAAAGAACUUUCAAATT against AICDA,inactive: 0.289
21,CUGUCAAUAUGAUCUCUUATT against AADAC,inactive: 0.0318
22,GCAAAGUCGUAUGCGAUGATT against PABPC5,inactive: -0.428

# 19 consecutive entries already listed, for reference:
row,Sequence,median seed-adjusted z-score
4,GGAGUGUGAUCGACCCUCATT against KRTAP5-5,active: -1.07
5,GGAAGAAACCAUUACAAUATT against SNAPC3,active: -1.72
6,GGAUUAUCACCUGAACUAUTT against FMR1,inactive: 0.504
7,GAACCAACCUGUCAAGUGATT against SELL,inactive: 0.554
8,GACUGAUUGCUGAUAGAAATT against DOCK1,inactive: -0.235
9,GCAAUCUGCGUAGCAAAUATT against ANGEL2,inactive: -0.59
10,GGCUGUAAGUGGUCUCCGUTT against TYROBP,inactive: 0.249
11,CCUCCUCAGUCAUAGAGCATT against NR2F2,inactive: 0.129
12,GGAUUAGUCCAAAGAGUGATT against FZD6,inactive: 0.312
13,GGAGAGGUAGAGAUCCGAATT against LTK,inactive: -0.0881
14,CCUGAAUCGGAUUAAAGAATT against LCN9,inactive: -0.897
15,GGCUGGGACUCGAAAGAAATT against APOB48R,inactive: 0.386
16,CGUGGUCACAAUUCUGCUATT against GPRC5D,inactive: -0.038
17,GCAUCGUUGAGACUUCGGATT against ARL6IP5,inactive: -0.202
18,GGUUGAAGAUGGUACUCCUTT against ADAMTS20,active: 1.44
19,GAUGGAUCUUUACAGUUGATT against METTL4,inactive: 0.244
20,CCAUGAAAGAACUUUCAAATT against AICDA,inactive: 0.289
21,CUGUCAAUAUGAUCUCUUATT against AADAC,inactive: 0.0318
22,GCAAAGUCGUAUGCGAUGATT against PABPC5,inactive: -0.428
